The other results are listed elsewhere or left out.
The targets below were run with C1=CC=C2C(=C1)C3=NNC4=CC=CC(=C43)C2=O (assay: log2 fold change, soluble protein after heating vs DMSO (PISA); higher = thermal stabilisation; K562 lysate, 10 uM; active = over 0.2 and 3.5 SD of the protein, either way, in both replicates (recomputed)).
Outline: (§1)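 Values give the log-two fold change in thermal stability against solvent controls, from duplicates. Crude K562 extract at 1 mg/mL protein, made by dounce homogenisation in PBS pH 7.4 with 1 mM MgCl2, was treated with 10 μM compound for 30 min. After 3 min heating across 48°C-58°C, aliquots were pooled, adjusted to 0.5% NP-40 at 4°C and centrifuged at 21,000xg for 90 min. The supernatant was measured by TMTpro 16plex LC-MS/MS with channel sums equalised.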

Amino acid sequences for entries named in this document (tags omitted). A change or cut given only in a name is not applied to a line headed by its entry.
UniProt Q6Y288: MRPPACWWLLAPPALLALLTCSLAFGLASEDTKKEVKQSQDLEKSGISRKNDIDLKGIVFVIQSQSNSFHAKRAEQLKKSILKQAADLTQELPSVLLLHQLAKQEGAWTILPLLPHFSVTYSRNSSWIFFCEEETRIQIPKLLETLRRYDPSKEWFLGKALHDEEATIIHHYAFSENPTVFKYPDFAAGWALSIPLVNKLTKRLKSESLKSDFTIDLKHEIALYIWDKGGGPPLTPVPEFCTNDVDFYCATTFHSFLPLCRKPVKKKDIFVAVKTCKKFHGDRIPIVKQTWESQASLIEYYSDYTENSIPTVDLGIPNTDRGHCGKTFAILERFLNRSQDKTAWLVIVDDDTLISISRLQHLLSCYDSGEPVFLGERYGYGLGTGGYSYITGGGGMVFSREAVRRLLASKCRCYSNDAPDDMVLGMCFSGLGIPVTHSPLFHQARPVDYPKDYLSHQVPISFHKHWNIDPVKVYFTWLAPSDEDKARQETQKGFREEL
UniProt P30049: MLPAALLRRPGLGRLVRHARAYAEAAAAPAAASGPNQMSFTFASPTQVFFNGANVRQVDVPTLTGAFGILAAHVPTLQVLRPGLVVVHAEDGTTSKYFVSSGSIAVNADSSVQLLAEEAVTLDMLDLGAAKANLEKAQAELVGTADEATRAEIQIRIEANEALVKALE
UniProt P54252: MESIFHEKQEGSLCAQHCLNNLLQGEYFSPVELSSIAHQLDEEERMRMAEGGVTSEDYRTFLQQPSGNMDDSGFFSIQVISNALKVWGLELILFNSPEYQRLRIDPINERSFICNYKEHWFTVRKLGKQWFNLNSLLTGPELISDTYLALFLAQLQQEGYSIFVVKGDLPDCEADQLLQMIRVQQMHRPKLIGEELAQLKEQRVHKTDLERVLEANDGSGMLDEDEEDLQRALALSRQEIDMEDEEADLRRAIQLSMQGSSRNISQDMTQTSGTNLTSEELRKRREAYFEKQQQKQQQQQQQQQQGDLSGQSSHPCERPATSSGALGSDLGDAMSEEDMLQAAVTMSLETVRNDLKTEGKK
UniProt Q96A05, whole entry, looked up: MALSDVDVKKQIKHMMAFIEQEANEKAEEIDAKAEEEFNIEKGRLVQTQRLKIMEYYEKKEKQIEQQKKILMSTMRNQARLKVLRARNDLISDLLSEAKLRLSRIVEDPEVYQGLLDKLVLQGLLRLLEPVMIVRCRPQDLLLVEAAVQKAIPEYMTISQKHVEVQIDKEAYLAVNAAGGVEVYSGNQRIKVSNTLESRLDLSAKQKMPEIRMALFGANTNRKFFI
UniProt P61769, whole entry, looked up: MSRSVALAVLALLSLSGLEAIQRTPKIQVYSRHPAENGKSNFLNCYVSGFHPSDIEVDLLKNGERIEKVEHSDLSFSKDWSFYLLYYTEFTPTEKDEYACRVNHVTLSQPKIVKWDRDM
UniProt Q9NWX5: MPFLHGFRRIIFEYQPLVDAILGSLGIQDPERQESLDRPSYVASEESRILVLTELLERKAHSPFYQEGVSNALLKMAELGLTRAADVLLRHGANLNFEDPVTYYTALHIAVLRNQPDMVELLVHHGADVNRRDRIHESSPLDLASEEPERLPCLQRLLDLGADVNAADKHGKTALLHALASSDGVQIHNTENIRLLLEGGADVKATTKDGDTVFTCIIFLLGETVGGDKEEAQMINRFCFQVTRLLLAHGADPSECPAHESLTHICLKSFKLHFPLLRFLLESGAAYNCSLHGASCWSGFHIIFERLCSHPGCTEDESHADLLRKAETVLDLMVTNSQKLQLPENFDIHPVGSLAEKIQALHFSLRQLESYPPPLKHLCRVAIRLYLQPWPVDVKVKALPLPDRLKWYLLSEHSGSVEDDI
UniProt P18859: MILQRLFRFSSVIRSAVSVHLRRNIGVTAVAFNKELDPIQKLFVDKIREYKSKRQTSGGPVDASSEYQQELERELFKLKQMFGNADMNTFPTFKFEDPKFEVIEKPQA
UniProt O95352: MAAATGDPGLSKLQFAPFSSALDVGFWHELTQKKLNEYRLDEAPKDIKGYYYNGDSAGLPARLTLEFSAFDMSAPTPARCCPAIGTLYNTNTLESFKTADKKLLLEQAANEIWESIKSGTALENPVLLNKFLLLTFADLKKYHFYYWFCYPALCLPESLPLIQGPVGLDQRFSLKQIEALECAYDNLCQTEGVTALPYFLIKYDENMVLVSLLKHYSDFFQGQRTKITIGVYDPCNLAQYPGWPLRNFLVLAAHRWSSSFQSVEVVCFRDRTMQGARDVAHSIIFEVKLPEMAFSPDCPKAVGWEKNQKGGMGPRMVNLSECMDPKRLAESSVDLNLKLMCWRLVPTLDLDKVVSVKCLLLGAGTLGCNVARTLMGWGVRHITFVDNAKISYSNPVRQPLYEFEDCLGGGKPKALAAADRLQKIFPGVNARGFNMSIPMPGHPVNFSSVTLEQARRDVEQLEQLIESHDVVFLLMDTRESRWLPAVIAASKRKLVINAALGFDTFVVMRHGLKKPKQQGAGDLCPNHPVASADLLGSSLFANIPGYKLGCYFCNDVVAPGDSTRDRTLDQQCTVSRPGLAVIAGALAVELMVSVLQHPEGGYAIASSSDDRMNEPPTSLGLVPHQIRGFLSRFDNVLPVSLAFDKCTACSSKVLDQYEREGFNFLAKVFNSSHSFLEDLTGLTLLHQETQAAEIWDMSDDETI
UniProt Q8NBF6: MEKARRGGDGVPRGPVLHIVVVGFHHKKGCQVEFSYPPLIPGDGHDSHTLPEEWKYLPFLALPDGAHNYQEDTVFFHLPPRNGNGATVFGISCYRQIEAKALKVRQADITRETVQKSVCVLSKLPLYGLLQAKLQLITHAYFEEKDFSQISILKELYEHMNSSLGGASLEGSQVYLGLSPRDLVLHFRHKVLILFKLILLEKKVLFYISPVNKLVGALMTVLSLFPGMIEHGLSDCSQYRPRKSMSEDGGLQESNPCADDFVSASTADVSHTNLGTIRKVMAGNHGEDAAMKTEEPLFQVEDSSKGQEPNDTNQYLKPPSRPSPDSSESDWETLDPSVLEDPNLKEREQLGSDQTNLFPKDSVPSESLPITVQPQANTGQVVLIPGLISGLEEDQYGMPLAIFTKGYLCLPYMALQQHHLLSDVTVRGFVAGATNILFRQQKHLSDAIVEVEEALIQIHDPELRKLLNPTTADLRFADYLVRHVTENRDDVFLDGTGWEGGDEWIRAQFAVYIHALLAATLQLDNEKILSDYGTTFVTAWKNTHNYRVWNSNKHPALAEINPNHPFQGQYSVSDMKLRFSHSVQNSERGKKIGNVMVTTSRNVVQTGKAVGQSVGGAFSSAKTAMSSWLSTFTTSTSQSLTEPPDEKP
UniProt O95260: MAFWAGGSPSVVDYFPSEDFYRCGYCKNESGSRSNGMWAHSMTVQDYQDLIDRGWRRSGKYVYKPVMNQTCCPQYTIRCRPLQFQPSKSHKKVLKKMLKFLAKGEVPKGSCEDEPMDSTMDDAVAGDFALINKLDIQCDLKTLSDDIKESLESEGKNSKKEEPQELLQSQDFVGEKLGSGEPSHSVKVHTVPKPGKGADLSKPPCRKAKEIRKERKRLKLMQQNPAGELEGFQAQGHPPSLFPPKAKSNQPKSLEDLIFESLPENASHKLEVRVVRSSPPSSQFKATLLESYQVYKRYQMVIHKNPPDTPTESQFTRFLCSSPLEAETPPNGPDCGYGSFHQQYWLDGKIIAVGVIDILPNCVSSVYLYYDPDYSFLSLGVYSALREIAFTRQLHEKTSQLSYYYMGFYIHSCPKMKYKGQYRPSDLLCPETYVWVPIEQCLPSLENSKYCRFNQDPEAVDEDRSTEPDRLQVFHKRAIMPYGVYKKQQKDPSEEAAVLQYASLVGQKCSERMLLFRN
UniProt Q9UBB4: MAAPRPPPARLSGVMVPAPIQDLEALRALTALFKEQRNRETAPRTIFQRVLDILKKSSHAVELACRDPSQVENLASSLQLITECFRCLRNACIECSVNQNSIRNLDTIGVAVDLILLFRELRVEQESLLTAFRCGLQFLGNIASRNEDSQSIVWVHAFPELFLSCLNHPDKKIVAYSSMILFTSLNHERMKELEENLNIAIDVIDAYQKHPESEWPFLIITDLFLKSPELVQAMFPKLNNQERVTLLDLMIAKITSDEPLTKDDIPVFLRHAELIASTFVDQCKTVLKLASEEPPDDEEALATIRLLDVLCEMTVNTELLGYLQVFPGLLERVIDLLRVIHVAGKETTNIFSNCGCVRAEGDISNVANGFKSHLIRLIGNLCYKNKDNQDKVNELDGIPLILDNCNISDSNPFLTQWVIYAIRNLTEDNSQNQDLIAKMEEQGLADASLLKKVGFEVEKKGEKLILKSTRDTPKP
UniProt P21281, whole entry, looked up: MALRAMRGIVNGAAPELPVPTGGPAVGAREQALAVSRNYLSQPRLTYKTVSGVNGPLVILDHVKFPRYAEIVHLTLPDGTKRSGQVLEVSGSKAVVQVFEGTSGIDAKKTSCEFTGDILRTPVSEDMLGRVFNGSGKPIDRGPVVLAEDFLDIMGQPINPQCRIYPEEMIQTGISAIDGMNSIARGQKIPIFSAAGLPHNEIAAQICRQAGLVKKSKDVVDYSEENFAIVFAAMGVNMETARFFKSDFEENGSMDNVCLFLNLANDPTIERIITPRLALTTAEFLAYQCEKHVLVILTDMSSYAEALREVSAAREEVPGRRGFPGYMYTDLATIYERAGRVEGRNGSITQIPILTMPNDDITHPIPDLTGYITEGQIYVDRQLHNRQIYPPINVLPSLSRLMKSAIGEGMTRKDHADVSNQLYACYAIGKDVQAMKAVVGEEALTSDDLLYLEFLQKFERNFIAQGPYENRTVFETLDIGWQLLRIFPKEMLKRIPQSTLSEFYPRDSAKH
UniProt Q96DT6: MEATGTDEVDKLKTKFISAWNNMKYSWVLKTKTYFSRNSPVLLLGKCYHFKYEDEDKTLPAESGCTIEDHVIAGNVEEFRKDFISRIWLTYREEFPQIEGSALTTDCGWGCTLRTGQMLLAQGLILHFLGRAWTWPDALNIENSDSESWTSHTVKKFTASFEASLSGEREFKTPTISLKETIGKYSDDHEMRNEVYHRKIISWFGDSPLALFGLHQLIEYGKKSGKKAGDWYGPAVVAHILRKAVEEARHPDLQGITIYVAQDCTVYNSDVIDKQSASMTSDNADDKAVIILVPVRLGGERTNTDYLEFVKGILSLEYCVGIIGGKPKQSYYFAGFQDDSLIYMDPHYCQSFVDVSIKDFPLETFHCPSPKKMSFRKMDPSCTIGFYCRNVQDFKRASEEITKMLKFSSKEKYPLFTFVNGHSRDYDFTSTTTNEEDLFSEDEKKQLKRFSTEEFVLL
UniProt Q13733, whole entry, looked up: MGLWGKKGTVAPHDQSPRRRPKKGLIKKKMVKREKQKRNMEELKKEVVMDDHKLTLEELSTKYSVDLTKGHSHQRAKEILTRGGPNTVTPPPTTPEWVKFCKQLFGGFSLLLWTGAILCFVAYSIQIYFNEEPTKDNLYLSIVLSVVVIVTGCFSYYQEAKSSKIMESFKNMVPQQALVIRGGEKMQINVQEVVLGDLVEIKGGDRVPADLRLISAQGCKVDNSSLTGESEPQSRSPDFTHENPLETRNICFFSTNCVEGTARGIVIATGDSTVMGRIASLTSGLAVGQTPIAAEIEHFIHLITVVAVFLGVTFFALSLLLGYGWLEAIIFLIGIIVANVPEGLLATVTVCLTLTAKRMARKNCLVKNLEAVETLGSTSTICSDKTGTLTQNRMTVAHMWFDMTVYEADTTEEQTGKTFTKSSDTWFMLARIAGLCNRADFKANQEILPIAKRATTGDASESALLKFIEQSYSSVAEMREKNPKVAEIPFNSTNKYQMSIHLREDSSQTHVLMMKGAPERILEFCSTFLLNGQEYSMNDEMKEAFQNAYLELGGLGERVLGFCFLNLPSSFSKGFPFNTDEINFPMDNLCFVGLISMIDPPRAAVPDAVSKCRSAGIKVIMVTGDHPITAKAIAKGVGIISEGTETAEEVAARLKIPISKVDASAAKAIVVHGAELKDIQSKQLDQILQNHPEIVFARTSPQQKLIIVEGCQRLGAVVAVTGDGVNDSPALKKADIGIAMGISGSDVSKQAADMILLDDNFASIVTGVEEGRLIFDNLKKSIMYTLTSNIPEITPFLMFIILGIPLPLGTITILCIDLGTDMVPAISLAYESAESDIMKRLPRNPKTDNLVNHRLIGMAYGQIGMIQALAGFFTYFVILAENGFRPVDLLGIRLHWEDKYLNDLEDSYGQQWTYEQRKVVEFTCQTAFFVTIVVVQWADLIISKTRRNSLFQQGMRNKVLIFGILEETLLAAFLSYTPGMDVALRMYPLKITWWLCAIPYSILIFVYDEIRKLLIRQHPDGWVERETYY
UniProt O43681: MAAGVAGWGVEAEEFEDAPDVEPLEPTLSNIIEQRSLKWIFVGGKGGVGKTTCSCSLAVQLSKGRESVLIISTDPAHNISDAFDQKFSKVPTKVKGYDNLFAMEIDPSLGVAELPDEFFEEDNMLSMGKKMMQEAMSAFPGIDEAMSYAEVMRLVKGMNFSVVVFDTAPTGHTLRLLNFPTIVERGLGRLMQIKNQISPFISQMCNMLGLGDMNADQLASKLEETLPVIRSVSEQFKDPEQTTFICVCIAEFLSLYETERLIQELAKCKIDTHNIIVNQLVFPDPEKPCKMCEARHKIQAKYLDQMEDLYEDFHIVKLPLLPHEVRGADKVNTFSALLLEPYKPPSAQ

log2 fold change, inactive:
B3GLCT (UniProt Q6Y288) -0.029
ATP13A1 (UniProt Q9HD20) -0.054
ATP5F1C (UniProt P36542) 0.01
ATP2B4 (UniProt P23634) -0.018
ATP5F1D (UniProt P30049) -0.035
ATP23 (UniProt Q9Y6H3) -0.142
ATXN3 isoform 1 (UniProt P54252) -0.032
AZGP1 (UniProt P25311) -0.179
ASH2L (UniProt Q9UBL3) 0
ATG9A (UniProt Q7Z3C6) -0.033
ATP6V1E2 (UniProt Q96A05) -0.102
ATP1A1 (UniProt P05023) -0.001
ATG101 (UniProt Q9BSB4) 0.006
B2M (UniProt P61769) -0.002
ASB6 (UniProt Q9NWX5) 0.092
ATP11A (UniProt P98196) 0.102
ATP6V1E1 (UniProt P36543) -0.036
ATP5PF isoform 2 (UniProt P18859) -0.01
ATP13A2 (UniProt Q9NQ11) -0.006
ATG7 (UniProt O95352) -0.06
ATRIP (UniProt Q8WXE1) 0.266
AVL9 (UniProt Q8NBF6) 0.02
ATP6V1F isoform 2 (UniProt Q16864) 0.129
ASL (UniProt P04424) 0.012
ATE1 isoform 2 (UniProt O95260) 0.021
ATP1A3 isoform 3 (UniProt P13637) -0.025
ATXN10 (UniProt Q9UBB4) -0.025
ATP6V1B2 (UniProt P21281) 0.005
ATG2A isoform 3 (UniProt Q2TAZ0) -0.033
ASF1B (UniProt Q9NVP2) -0.002
ATG4C (UniProt Q96DT6) -0.073
ATP1A4 (UniProt Q13733) 0.014
ASNA1 (UniProt O43681) -0.001
ATP5PO (UniProt P48047) 0.029

What follows are targets tested with C1CCN(C1)C(=O)NC2=CC=CC(=C2)NC3=NC=C(C(=N3)NCCC4=CN=CN4)Br in the same assay as above.
Outline: as §1

log2 fold change, inactive:
B3GLCT (UniProt Q6Y288) -0.048
ATP13A1 (UniProt Q9HD20) -0.04
ATP5F1C (UniProt P36542) 0.015
ATP2B4 (UniProt P23634) 0.017
ATP5F1D (UniProt P30049) 0.019
ATP23 (UniProt Q9Y6H3) -0.029
ATXN3 isoform 1 (UniProt P54252) -0.052
AZGP1 (UniProt P25311) 0.211
ASH2L (UniProt Q9UBL3) 0.004
ATG9A (UniProt Q7Z3C6) -0.113
ATP6V1E2 (UniProt Q96A05) -0.014
ATP1A1 (UniProt P05023) -0.014
ATG101 (UniProt Q9BSB4) 0.037
B2M (UniProt P61769) 0.029
ASB6 (UniProt Q9NWX5) -0.053
ATP11A (UniProt P98196) -0.005
ATP6V1E1 (UniProt P36543) -0.009
ATP5PF isoform 2 (UniProt P18859) -0.003
ATP13A2 (UniProt Q9NQ11) 0.006
ATG7 (UniProt O95352) -0.028
ATRIP (UniProt Q8WXE1) -0.059
AVL9 (UniProt Q8NBF6) -0.045
ATP6V1F isoform 2 (UniProt Q16864) -0.058
ASL (UniProt P04424) -0.008
ATE1 isoform 2 (UniProt O95260) 0.054
ATP1A3 isoform 3 (UniProt P13637) -0.052
ATXN10 (UniProt Q9UBB4) -0.007
ATP6V1B2 (UniProt P21281) -0.046
ATG2A isoform 3 (UniProt Q2TAZ0) 0
ASF1B (UniProt Q9NVP2) -0.047
ATG4C (UniProt Q96DT6) -0.104
ATP1A4 (UniProt Q13733) 0.007
ASNA1 (UniProt O43681) 0.021
ATP5PO (UniProt P48047) 0.016

From the supplement of paper PMC10849652
